Test results reported in paper PMC7819943, “Rice protein-binding microarrays: a tool to detect cis-acting elements near promoter regions in rice”.
The other results are listed elsewhere or left out.

Sequences of proteins named here, by UniProt entry; tags and fusion partners are left off.
UniProt Q0JBA9, entry or part of it: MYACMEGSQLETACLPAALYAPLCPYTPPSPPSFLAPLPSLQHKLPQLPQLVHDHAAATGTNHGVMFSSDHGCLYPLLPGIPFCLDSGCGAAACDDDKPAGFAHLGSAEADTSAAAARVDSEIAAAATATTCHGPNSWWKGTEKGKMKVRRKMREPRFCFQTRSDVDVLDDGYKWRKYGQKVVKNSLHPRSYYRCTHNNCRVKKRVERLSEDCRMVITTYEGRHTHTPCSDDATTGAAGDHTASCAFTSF

What follows are sequences tested against OsWRKY34 (Oryza sativa, UniProt Q0JBA9 1-250) (assay: protein-binding microarray (RPBM); PBS, 2% BSA, 51.3 ng/ul salmon testes DNA, 50 uM zinc acetate, 200 nM TF, 25 C, 1 h; high values mean tight binding). Settings: protein: recombinant; tags: N-terminal polyhistidine and DsRed monomer fusion (pET32a); label: CyDye5-dUTP incorporated in the synthesized complementary strand; 3' TTTTT single-stranded linker to array surface; dsDNA, one strand shown.
Outline: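 For the binding signal, per-feature fluorescence intensity was read in arbitrary units on an Axon 4000B scanner. Before scanning, a 2% BSA-blocked custom Agilent array made double-stranded with Cy5-dUTP was washed after 1 h at 25 °C with 200 nM protein and 50 µM zinc acetate. The proteins were Ni–NTA-purified transcription factors with N-terminal polyhistidine and DsRed fusions, expressed in E. coli BL21-CodonPlus.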
For “ATTAAAAACACCTTTGATTTTACACTTCATTTTTCTTTCCCGGAGTCACCTAGTGCAG”, the binding signal was 8910 fluorescence intensity (a.u.). In the case of “TTATCACATTATTTTTCATTATATACTCCGTTTTTTTATTCGGAGTCACCTAGTGCAG”, the binding signal is reported as 9100 fluorescence intensity (a.u.). In the case of “TTGAGTGATTTTGTACATTAGATACCATGGTGCCCCATATCGGAGTCACCTAGTGCAG”, the binding signal is reported as 8220 fluorescence intensity (a.u.). “CAATGGCTTACGACGAGACGACTCACCTTTGAATTCCACGCGGAGTCACCTAGTGCAG” was tested, and the binding signal was 9460 fluorescence intensity (a.u.). For “CCATTCCTGTGATAGCCCTTAATGATCAGTTAGCATGCATCGGAGTCACCTAGTGCAG”, the binding signal was 8920 fluorescence intensity (a.u.). “TTTAGTCCCAACACGCTCATAATTTCTTTTTTAAAAAATACGGAGTCACCTAGTGCAG” was tested, and the binding signal was 8100 fluorescence intensity (a.u.). “GAAGCGCCGCCTCCTCTTAAGTCTTAACCCAACTGGTTTGCGGAGTCACCTAGTGCAG” was tested, and the binding signal was 8380 fluorescence intensity (a.u.). “ATCGATCCATCTCTGCACAGCTGCACTTGCATTTCAGCCACGGAGTCACCTAGTGCAG” was tested, and the binding signal was 9960 fluorescence intensity (a.u.). For “TGATGTATCTGTTCTGTGGCTGCTTTACGCCCATCACCTTCGGAGTCACCTAGTGCAG”, the binding signal was 10000 fluorescence intensity (a.u.). In the case of “AAAGCCGCACACGTGTTTCCCGCGACCGCGCCACGTCACCCGGAGTCACCTAGTGCAG”, the binding signal is reported as 8790 fluorescence intensity (a.u.). For “TTCTAGTGGAGCTATTGCATTTTTTGCGTGCTCTTATCCTCGGAGTCACCTAGTGCAG”, the binding signal was 8030 fluorescence intensity (a.u.). With “CGCCTCGACGGGTTTGGATCTCGGGGTGGGATTAGAGGGGCGGAGTCACCTAGTGCAG” the binding signal was 12900 fluorescence intensity (a.u.). “CCTAACCTGGCCCTTATCATTGTGCGTTGGAGCACGTTTTCGGAGTCACCTAGTGCAG” was tested, and the binding signal was 9680 fluorescence intensity (a.u.). “AGTTGTGATTATTGTTTAACCTATTTCCCTGAAGAAATTCCGGAGTCACCTAGTGCAG” was tested, and the binding signal was 8090 fluorescence intensity (a.u.). In the case of “ATATACTCTCTCCGTTTCACAATGTAAGTCATTCTAGCGTCGGAGTCACCTAGTGCAG”, the binding signal is reported as 10700 fluorescence intensity (a.u.). In the case of “TTTGCACTGGTTTTGTAAGTTGGGGATGTATTGTATGAGGCGGAGTCACCTAGTGCAG”, the binding signal is reported as 9560 fluorescence intensity (a.u.). For “AAATCAAGCACTAATCCACTCTGACACGTCATCATGTATCCGGAGTCACCTAGTGCAG”, the binding signal was 8380 fluorescence intensity (a.u.). In the case of “AACTCCCAAAACCTCTTCTGCGGCGGCCGCTTTCGTTAGTCGGAGTCACCTAGTGCAG”, the binding signal is reported as 8520 fluorescence intensity (a.u.). For “CAGCTCGTCTCCGCCGTCGACTTCTGCCACTCCCGCGGCGCGGAGTCACCTAGTGCAG”, the binding signal was 8550 fluorescence intensity (a.u.). In the case of “TTGGTTTGGGATAGGTAGGTGTTATGTTAGGTCTGGTTTTCGGAGTCACCTAGTGCAG”, the binding signal is reported as 12000 fluorescence intensity (a.u.). For “TGTGGATCTCTCGCTCGATCAGCGACGTCGGTCGTCATCTCGGAGTCACCTAGTGCAG”, the binding signal was 9930 fluorescence intensity (a.u.). In the case of “ATCCGAGCATCTCGCCTCGCCCCGCCCCGCCCCGATCGATCGGAGTCACCTAGTGCAG”, the binding signal is reported as 9480 fluorescence intensity (a.u.). In the case of “CTGCCTACACCGCCCCACCGCCAACTTCCGACCCCGCGGTCGGAGTCACCTAGTGCAG”, the binding signal is reported as 9090 fluorescence intensity (a.u.). For “ACCACCACCATTTGATCTGTTTCCTTCTCAGACACCAAAGCGGAGTCACCTAGTGCAG”, the binding signal was 10100 fluorescence intensity (a.u.). For “CCGAGCTGCCCCACGGCGCCGCCCTCCAAGCTGCACTCCGCGGAGTCACCTAGTGCAG”, the binding signal was 8560 fluorescence intensity (a.u.). For “CTGTGTGTGCAGTTCGATCGAGTATAATCCGCACTTTCTCCGGAGTCACCTAGTGCAG”, the binding signal was 8230 fluorescence intensity (a.u.). With “CTTTGAACCTAAAATTTTTTCACTGTTTTCGATCGGTTTTCGGAGTCACCTAGTGCAG” the binding signal was 8280 fluorescence intensity (a.u.). “GCCCGAACCTGTATACATCGCCCGTGTCTTGTGTGTTTCCCGGAGTCACCTAGTGCAG” was tested, and the binding signal was 14700 fluorescence intensity (a.u.). “TTTGGTTGATGGCTATAAGTTGCCACACTTTGCCATACTTCGGAGTCACCTAGTGCAG” was tested, and the binding signal was 8110 fluorescence intensity (a.u.). “ACTTACTCAGCCTTGTTTATACTACTTTCTCCGTTCCAAACGGAGTCACCTAGTGCAG” was tested, and the binding signal was 12500 fluorescence intensity (a.u.). With “GTAATGGCCGCAGTATCGTTTTTTCGCATCACTGTCCTCTCGGAGTCACCTAGTGCAG” the binding signal was 10400 fluorescence intensity (a.u.). In the case of “AGAATTTGCACTACTGTACACCGCTTATCTTATCCTTGTACGGAGTCACCTAGTGCAG”, the binding signal is reported as 9630 fluorescence intensity (a.u.). For “CAGGCGGCGAGCCGGGATGGCGGTGGCGGGGCCATCTTCTCGGAGTCACCTAGTGCAG”, the binding signal was 8860 fluorescence intensity (a.u.). With “ATTCGTGCTCAGTTGTTTCTTTTCCAACTCCGGCGTCCTCCGGAGTCACCTAGTGCAG” the binding signal was 8150 fluorescence intensity (a.u.). “GATGGGATTATCATGTGTTCATTATCCAAAAATATTTGACCGGAGTCACCTAGTGCAG” was tested, and the binding signal was 8310 fluorescence intensity (a.u.). For “TGTTCTTGAGTTGCTTATATATGGCCTTCTAGCTCAGCTCCGGAGTCACCTAGTGCAG”, the binding signal was 8540 fluorescence intensity (a.u.). In the case of “AGTTGAGCTGTCTGTGTTCATCAGCCCATCACTCTCTTCTCGGAGTCACCTAGTGCAG”, the binding signal is reported as 11000 fluorescence intensity (a.u.). “AACATGCATCATGTCCCTCATCCTGTTCGTTGACTTCAACCGGAGTCACCTAGTGCAG” was tested, and the binding signal was 9740 fluorescence intensity (a.u.). With “GGCGCTGGCAAGATGGAGGCGGAGGGTGGAGGGCGGAGGACGGAGTCACCTAGTGCAG” the binding signal was 13100 fluorescence intensity (a.u.). In the case of “ATTGTTTCCGCCTTCAGAACATTTCTCTGAACTCGTCCTCCGGAGTCACCTAGTGCAG”, the binding signal is reported as 9120 fluorescence intensity (a.u.). “TTTATACCTATTCTGTTATACGTTCTTGCTGTACATTTTTCGGAGTCACCTAGTGCAG” was tested, and the binding signal was 9620 fluorescence intensity (a.u.). In the case of “AACGCATTCTCCAATTATATATATGCTCCTGGATTTTACACGGAGTCACCTAGTGCAG”, the binding signal is reported as 8890 fluorescence intensity (a.u.).
